Earlier results as cited in patent publication US8916536B2, “Bone-targeting bisphosphonate duplex drugs” (priority 2010, dated 2014).
At least one structure is not confirmed: it was looked up by name or label, or the drawing left a doubt.

Columns and labels:
[1] = system: 6 different tumor cell lines; settings: 6 days of incubation, in average, read-out: concentration for 50% growth inhibition; cited from earlier work
8 other cell lines = settings: MTT assay, read-out: dose for 50% growth inhibition; cited from earlier work

O=P(O)(O)C(O)(Cn1ccnc1)P(=O)(O)O [Zoledronic acid]
IC50 [1]: 2 to 1910 µM | IC50 (8 other cell lines): 2.3 to 86.6 µM
